Results published in patent publication US9180163B2, “Parstatin peptides” (priority 2009, dated 2015).
Part of at least one peptide drawing is inferred or uncertain, most often the ends. Ends that are not written are not given here. * marks the point of attachment. FITC = O=C1OC2(c3ccc(O)cc3Oc3cc(O)ccc32)c2ccc(NC(=S)*)cc21; Ahx = NCCCCCC(=O)O

Columns and labels:
HUVEC cells [1] = test: cellular uptake of FITC-labeled peptides by flow cytometry; type: cell-based, human; conditions: for fraction of FITC-positive cell population: 30 min exposure
Description: HUVEC cells in the exponential growth phase were exposed to various concentrations of parstatin (1-41)-FITC in serum-free medium containing 0.5% BSA. After incubation times ranging from 1 min to 60 min, cells were washed extensively. Washed cells were incubated for 10 min with trypsin at 37° C. to remove the cell surface-bound parstatin. Suspended cells were subsequently centrifuged, washed, and analyzed on FACS flow cytometer (EPICS XL-MCL; Coulter).
The uptake of a given parstatin (1-41)-FITC into cells was assessed by the change of the FITC-positive cell population compared with untreated control cell samples.

HUVEC cells [2] = test: cellular uptake by fluorescence microscopy; type: cell-based, human; conditions: 10 μM
Description: 4′,6-Diamidino-2-phenylindole (DAPI) was used to stain nuclei of all cells. Cell fluorescence was imaged on a Nikon Eclipse TE2000-U microscope. FITC and DAPI were excited using 490-nm and 360-nm filters, respectively. The emission signals were sorted out using 514 and 460 filters for the FITC and DAPI, respectively. HUVEC cells were treated with 10 μM of parstatin (1-41)-FITC for different time intervals. […] FITC signal was detected as early as 5 min of cell exposure to parstatin (1-41)-FITC (FIG. 9C).

| Substance | time to maximal level of FITC-positive cell population (HUVEC cells [1]; 10 μM) [min] | FITC-positive cell population (HUVEC cells [1]; 1 min exposure, 10 μM) [%] | fraction of FITC-positive cell population (HUVEC cells [1]) | localization of FITC signal (HUVEC cells [2]; 5 min) | localization of FITC signal (HUVEC cells [2]; 10 min) | localization of FITC signal (HUVEC cells [2]; 30 min) |
| --- | --- | --- | --- | --- | --- | --- |
| {FITC-Ahx}-MGPRRLLLVAACFSLCGPLLSARTRARRPESKATNATLDPR (cysteines drawn unpaired) [parstatin (1-41)-FITC] | 30 | 13.4 | increased in a dose-dependent manner | exclusively localized in cell membranes | in cell membranes and in the cytosol | only in the cytosol |
| {FITC-Ahx}-MGPRRLLLVAACFSLCGPLLSARALTRSAPTPRDRANKETR (cysteines drawn unpaired) [FITC-labelled modulated parstatin] | – | – | marked increase | – | – | – |
